# Over roughly 33,000 sequences, “E-score (-0.5 to 0.5)” has its median near -0.0059; the highest 2% begin near 0.26. This is one part of the list.
# Molecular target: T1, Cin5 (UniProt P40917)
# T1 sequence: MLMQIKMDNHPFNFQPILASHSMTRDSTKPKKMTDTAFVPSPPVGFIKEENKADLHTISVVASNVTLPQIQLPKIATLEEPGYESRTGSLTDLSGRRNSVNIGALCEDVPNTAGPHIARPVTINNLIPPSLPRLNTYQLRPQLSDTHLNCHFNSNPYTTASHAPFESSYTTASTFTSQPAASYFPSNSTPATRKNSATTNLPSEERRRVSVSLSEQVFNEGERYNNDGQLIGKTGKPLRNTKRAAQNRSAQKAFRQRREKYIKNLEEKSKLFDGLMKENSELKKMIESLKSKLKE
# Assay: PBM E-score (8-mer binding enrichment) (E-score (-0.5 to 0.5)); higher = stronger / more preferred TF binding
# Details: protein concentration: 100 nM; construct: GST-full length
# Experimental: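 Universal 'all 10-mer' protein binding microarrays (Agilent AMADID 015681) probed with GST-tagged S. cerevisiae TFs (full-length or DBD) made by in vitro transcription/translation (PURExpress), about 100-200 nM. Bound TF was detected with fluorescent anti-GST. Each ungapped 8-mer (which stands for itself and its reverse complement) is scored by the PBM enrichment score (E-score), a modified Wilcoxon-Mann-Whitney statistic from -0.5 to +0.5, computed with the Universal PBM Analysis Suite. Scale: above 0.35 generally sequence-specific binding.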
row,Sequence,PBM E-score
1,GATAGTTA,0.226
2,CTAGCTCA,-0.101
3,CATGGATC,-0.00694
4,AGTATGCC,-0.0797
5,AGGAGCAA,-0.104
6,AGGTAGGG,0.0397
7,AAACATCA,0.129
8,AGACGTTA,-0.0554
9,GACCTTGA,-0.0555
10,AGAATTCC,0.0573
11,GGTGCCAA,-0.118
12,ACACTTGG,-0.0972
13,ATCGGCTC,0.0239
14,ACTTCGAG,0.0671
15,AAGGATGA,0.0547
16,CATGCACG,-0.0722
17,CACTATTC,0.173
18,AAGAGATG,0.0505
19,CTGGACCA,-0.148
20,AAGTTCGG,-0.0355
21,TGTCAGAA,-0.0358
22,GCTACAAA,0.107

# An excerpt of these results, with tabs.
row	Sequence	PBM E-score
9	GACCTTGA	-0.0555
12	ACACTTGG	-0.0972
16	CATGCACG	-0.0722
19	CTGGACCA	-0.148
21	TGTCAGAA	-0.0358

# Following part:

row,Sequence,PBM E-score
1,ATGCAACC,0.0776
2,ACGTTGAA,0.0972
3,CGAGAATC,0.0488
4,ATCGACCA,-0.12
5,ACACAATC,-0.0345
6,GGATTAAC,0.164
7,CCCGCCTA,0.131
8,CGTCTAGC,-0.173
9,AATAAGAC,0.0572
10,AAGCCCGA,-0.104
11,ATGATATC,0.167
12,CGCCGCTC,-0.0167
13,ATGAGCCA,0.0939
14,CCCCACGC,-0.238
15,GACAAATA,0.149
16,AGGACTCG,-0.22
17,CAGGGATC,-0.13
18,ACCCGCAC,-0.0302
19,TGATTGCA,0.184
20,AGGATTGC,-0.179
21,AAATCCCG,0.124
22,CAGACGGG,-0.199

row,Sequence,PBM E-score
1,AGGCTACC,-0.245
2,ATGTTTTG,0.151
3,CAGTACGG,-0.0198
4,GCTTGCCC,-0.312
5,GCGTCAGC,-0.102
6,CGCTATAC,0.145
7,GTACCGTA,0.0114
8,GATTGGGC,0.114
9,GGAAAACA,0.0863
10,CTCTATCA,-0.0636
11,ACTGACCT,0.0284
12,CAAACGTA,0.12
13,CGATAAAC,-0.143
14,GTCTCAGA,-0.168
15,ATAACGAC,0.238
16,ACCAGACC,-0.0459
17,CCAACGAC,-0.158
18,GATTAATA,0.348
19,TAAAACAA,-0.0112
20,GGGGAATA,0.0277
21,ACCTCCGG,-0.0229
22,AGAATCCA,0.0844

# Taken from the listing (3 entries):
row,Sequence,PBM E-score
11,ACTGACCT,0.0284
12,CAAACGTA,0.12
13,CGATAAAC,-0.143

# Remaining list, next part.

row,Sequence,PBM E-score
1,AAGATATT,0.247
2,GTATGTTA,0.0473
3,CGACTCGC,-0.0833
4,GATTAGTA,0.254
5,GAGAATTA,0.2
6,ACGGTGTC,-0.265
7,GACCGCTC,-0.167
8,CTCTCCAG,-0.333
9,ACATATGT,0.103
10,AGCTCCCC,-0.218
11,CGATCTGA,0.0488
12,ACAGCGGC,-0.142
13,CCCTACAG,-0.188
14,GATTCAGA,0.0843
15,ATCTTCAC,0.0209
16,ACGCTTCA,-0.178
17,CCGGCTTA,0.166
18,AAACCCGT,-0.2
19,AAACCGCA,-0.142
20,GACCCTGA,-0.186
21,TCGGGACA,-0.0817
22,AGTAGGTG,-0.00231

row,Sequence,PBM E-score
1,CATCTATC,0.0252
2,CACGTTCA,-0.14
3,CCCGGTTC,-0.24
4,AGGACAAA,0.152
5,GCGCGATA,0.177
6,TGCAGAAA,0.0504
7,ATTGAGTC,0.103
8,GTCTACGA,-0.215
9,AGTTGTCC,0.0343
10,GTCTAACA,-0.192
11,CGGAACGA,0.287
12,AAATTGCA,0.15
13,CGTATGTC,-0.123
14,ACTATCTC,0.121
15,AAGTTAAC,0.194
16,CCAATCCC,0.0783
17,CAACTCTC,-0.0548
18,GTTGACGA,-0.0909
19,CACCATAC,0.00539
20,ATAAATTA,0.349
21,ACCAGTCA,0.0208

# From the supplement of paper PMC3334620
